Test results published in patent publication US20210293825A1, “METHODS FOR PRECISION THERAPEUTIC TARGETING OF HUMAN CANCER CELL MOTILITY AND KITS THEREOF” (UNITED STATES GOVERNMENT AS REPRESENTED BY THE DEPARTMENT …, priority 2018, published 2021).
Results are given in words; binding and its absence hold for the method and conditions named. Some results given as binding are weak or reduced against the parent protein; the word gives no strength.

By UniProt entry, the sequences of proteins in these tests, tags left out. Where a name states a change or a piece, a line headed by the entry shows the natural chain unless it says otherwise.
UniProt P27652: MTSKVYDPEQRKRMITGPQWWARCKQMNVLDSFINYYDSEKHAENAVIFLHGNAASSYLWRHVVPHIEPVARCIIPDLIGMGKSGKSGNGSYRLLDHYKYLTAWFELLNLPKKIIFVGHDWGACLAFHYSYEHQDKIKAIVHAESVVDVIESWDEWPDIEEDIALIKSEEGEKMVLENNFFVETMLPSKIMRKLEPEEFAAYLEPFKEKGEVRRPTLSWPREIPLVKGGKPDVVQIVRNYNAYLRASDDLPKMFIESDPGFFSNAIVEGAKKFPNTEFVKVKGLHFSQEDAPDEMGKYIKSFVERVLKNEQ
UniProt Q13546: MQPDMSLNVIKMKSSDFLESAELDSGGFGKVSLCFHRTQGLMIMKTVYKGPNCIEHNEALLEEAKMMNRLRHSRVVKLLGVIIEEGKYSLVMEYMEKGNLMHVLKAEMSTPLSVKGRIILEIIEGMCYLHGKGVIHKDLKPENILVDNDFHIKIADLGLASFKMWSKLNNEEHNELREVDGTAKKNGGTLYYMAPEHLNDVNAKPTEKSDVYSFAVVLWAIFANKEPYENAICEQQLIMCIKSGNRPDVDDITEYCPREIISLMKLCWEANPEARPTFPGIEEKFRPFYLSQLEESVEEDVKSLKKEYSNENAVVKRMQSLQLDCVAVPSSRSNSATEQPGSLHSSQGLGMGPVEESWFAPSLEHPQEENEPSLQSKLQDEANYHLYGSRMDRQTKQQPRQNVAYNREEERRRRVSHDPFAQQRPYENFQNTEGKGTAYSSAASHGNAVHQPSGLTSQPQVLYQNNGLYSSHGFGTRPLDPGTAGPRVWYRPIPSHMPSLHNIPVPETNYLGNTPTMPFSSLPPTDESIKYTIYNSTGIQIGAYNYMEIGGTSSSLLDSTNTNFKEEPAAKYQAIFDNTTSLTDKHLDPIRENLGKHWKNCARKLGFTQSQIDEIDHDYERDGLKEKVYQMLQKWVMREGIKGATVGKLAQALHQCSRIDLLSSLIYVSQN

Assays:
[1] = target: HSP90β/CDC37 heterocomplex in HEK293T cells stably expressing Renilla-HSP90β (LUMIER assay) (UniProt P27652); test: LUMIER assay in HEK293T cells
[2] = target: HSP90β/CDC37 heterocomplex in HEK293T cells stably expressing Renilla-HSP90β (LUMIER assay) (UniProt P27652); test: LUMIER assay in TGFβ-treated HEK293T cells, with and without 10 µM KBU2046

Substance: FLAG-tagged RIPK1 transfected into HEK293T cells (from UniProt Q13546 1-671) (enzyme)
- binding [1]: binds
- binding [2]: binds
